Measured values as given in patent publication US20230165846A1, “HETEROCYCLIC GLP-1 AGONISTS” (Gasherbrum Bio, Inc., priority 2020, published 2023).

Chains of the proteins cited; added tags and fusions are not shown. Residues count along the entry.
UniProt P43220, 24-463 limits assumed: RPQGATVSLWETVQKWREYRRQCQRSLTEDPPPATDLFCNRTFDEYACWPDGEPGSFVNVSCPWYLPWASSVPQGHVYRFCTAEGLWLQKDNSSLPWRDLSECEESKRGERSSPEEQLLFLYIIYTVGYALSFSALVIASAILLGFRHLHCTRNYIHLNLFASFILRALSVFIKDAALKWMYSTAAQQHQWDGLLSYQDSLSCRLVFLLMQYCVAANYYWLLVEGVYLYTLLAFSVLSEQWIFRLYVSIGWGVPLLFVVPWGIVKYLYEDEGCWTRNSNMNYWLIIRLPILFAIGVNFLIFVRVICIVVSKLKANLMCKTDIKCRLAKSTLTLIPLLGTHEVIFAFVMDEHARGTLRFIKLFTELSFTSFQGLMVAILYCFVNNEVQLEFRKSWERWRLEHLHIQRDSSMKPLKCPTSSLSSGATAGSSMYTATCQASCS

How the values were obtained:
GLP-1 Receptor [1] = target: T1, GLP-1 Receptor (Homo sapiens, UniProt P43220); assay: GLP-1R agonist cAMP stimulation assay, Method 1 (DiscoverX CHO-K1, enzyme fragment complementation); settings: read-out: GLP1R cAMP Stimulation DR: EC50 (nM) Method 1; CHO-K1 cell line (DiscoverX) stably expressing GLP-1 Receptor; incubation 30 or 60 min at 37° C.; geometric mean where n>=2
GLP-1 Receptor [2] = target: T1, GLP-1 Receptor; assay: GLP-1R agonist cAMP stimulation assay, Method 2 (HDB HEK293/GLP1R/CRE-LUC, Cisbio cAMP dynamic 2 kit); settings: read-out: GLP1R cAMP Stimulation DR: EC50 (nM) Method 2 (HDB); HEK293/GLP1R/CRE-LUC cells (HD Biosciences); 30 min at 37° C.; 0.5 mM IBMX, 0.1% BSA; geometric mean where n>=2

`O=C(O)c1ccc2nc(COc3cc(-c4cccc(OCc5ccc(Cl)cc5F)n4)ccn3)n(C[C@@H]3CCO3)c2c1` was tested, and the EC50 (GLP-1 Receptor [1]) was 0.77 nM and the EC50 (GLP-1 Receptor [2]) was 0.54 nM.

Structures were worked out from names or drawings and are uncertain.
